Values from PubChem BioAssay AID1224830 (NIAID, 2016)
This is a random part of about 18,000 deposited reagents. In the full data, about 2,900 (16%) are marked active. 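Calls are made per well; low scores hint the gene aids the LPS response, high scores that it dampens it.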 Repeated entries: four replicate wells of each siRNA pool. Reagent sequences are not shown.

- Test: 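Host factors that control LPS-induced TNF expression in human macrophages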 (primary screen)
- Cells: human THP-1 monocytic leukaemia cells, TNF dual-luciferase reporter clone, PMA-differentiated to macrophage-like cells
- Reagent: siRNA pool against human genes, 50 nM
- Timing: LPS for 4 h, given about 3 days after siRNA transfection
- Conditions: bacterial LPS (TLR4 ligand), 10 ng/ml
- Measured: 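Ratio of firefly to renilla light, scaled to the plate median and expressed as a robust z-score per replicate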
- Reading the numbers: TNF reporter robust z-score: higher = stronger TNF reporter response to LPS
- Hit rule: 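Each well counts as active if its z-score is over 2.8 or under -1.5; controls are left without a call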

gene knocked down	TNF reporter robust z-score	call
FAM171A1	-0.25	inactive
FAM171A1	0.09	inactive
FAM171A1	0.01	inactive
FAM171A1	0.28	inactive
AP4E1	-0.42	inactive
AP4E1	0.12	inactive
AP4E1	-0.22	inactive
AP4E1	0.85	inactive
HACE1	0	inactive
HACE1	0.65	inactive
HACE1	0.35	inactive
HACE1	-0.14	inactive
ARPP21	-0.12	inactive
ARPP21	0.73	inactive
ARPP21	0.37	inactive
ARPP21	0.59	inactive
TPH1	0	inactive
TPH1	0.8	inactive
TPH1	-0.94	inactive
TPH1	0.21	inactive
CCDC50	0.05	inactive
CCDC50	1.15	inactive
CCDC50	0.98	inactive
CCDC50	0.74	inactive
DUX1	-0.95	inactive
DUX1	-0.37	inactive
DUX1	-0.42	inactive
DUX1	0.16	inactive
KY	-0.45	inactive
KY	-1.03	inactive
KY	-0.69	inactive
KY	-0.95	inactive
CES1	2.09	inactive
CES1	2.45	inactive
CES1	1.45	inactive
CES1	2.22	inactive
KLHL28	0.62	inactive
KLHL28	-0.17	inactive
KLHL28	0.41	inactive
KLHL28	1.37	inactive
OCLN	-0.57	inactive
OCLN	-0.34	inactive
OCLN	1.57	inactive
OCLN	-0.81	inactive
TATDN1	-0.56	inactive
TATDN1	0.21	inactive
TATDN1	-0.3	inactive
TATDN1	1.08	inactive
SLC22A12	-0.75	inactive
SLC22A12	3.59	active
SLC22A12	0.84	inactive
SLC22A12	1.24	inactive
PPP3CB	0.69	inactive
PPP3CB	1.26	inactive
PPP3CB	0.5	inactive
PTGES2	-0.25	inactive
PTGES2	0.85	inactive
PTGES2	1.33	inactive
PTGES2	2.18	inactive
FRMD8	-0.36	inactive
FRMD8	0.35	inactive
FRMD8	0.2	inactive
FRMD8	0.42	inactive
ITGA9	-0.15	inactive
ITGA9	0.77	inactive
ITGA9	-1.18	inactive
ITGA9	0.32	inactive
MAIP1	0.33	inactive
MAIP1	0.26	inactive
MAIP1	1.42	inactive
MAIP1	0.25	inactive
GAGE2E	1.99	inactive
GAGE2E	2.42	inactive
GAGE2E	1.44	inactive
GAGE2E	1.01	inactive
SGO1	-0.13	inactive
SGO1	1.78	inactive
SGO1	-0.33	inactive
SGO1	0.33	inactive
FKRP	0.46	inactive
FKRP	0.49	inactive
FKRP	0.29	inactive
FKRP	1.88	inactive
CSGALNACT1	-1.4	inactive
CSGALNACT1	-1.2	inactive
CSGALNACT1	-1.41	inactive
CSGALNACT1	-1.26	inactive
TIFA	-0.32	inactive
TIFA	1.18	inactive
TIFA	0.63	inactive
TIFA	0.14	inactive
ZNF544	-0.61	inactive
ZNF544	0.24	inactive
ZNF544	-0.45	inactive
ZNF544	-0.41	inactive
UBFD1	0.58	inactive
UBFD1	-0.49	inactive
UBFD1	0.47	inactive
UBFD1	0.51	inactive
SHOC2	2.09	inactive
SHOC2	1.37	inactive
SHOC2	0.74	inactive
SHOC2	1.64	inactive
TMEM116	-1.26	inactive
TMEM116	-1.41	inactive
TMEM116	-1.32	inactive
TMEM116	-1.56	active
EVPL	-0.68	inactive
EVPL	-0.09	inactive
EVPL	-0.7	inactive
EVPL	-0.25	inactive
